Some of the results follow. Values are raw readings; no control value is given beside them.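 In the initial screen, polymyxin B was used at a concentration that permeabilizes Salmonella's outer membrane but not its inner membrane. Maximum growth was set by DMSO wells with or without polymyxin B. Since plates varied, data were ranked per plate, and compounds giving the lowest OD600 advanced as hits.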
Tested on: Salmonella enterica serovar Typhimurium SL1344
Assay: bacterial growth OD600 after 18 h with compound and polymyxin B; higher = more bacterial growth (less inhibition)
Conditions: 50 µM, Mueller-Hinton broth

Compound	bacterial growth OD600 (polymyxin B 1 µg/mL)	bacterial growth OD600 (polymyxin B 0.75 µg/mL)
COc1cccc(C(C)N(C)C(=O)c2cc(Cn3ccnc3C(C)C)[nH]n2)c1 (stereo not given)	0.985	
CCN(C)CC1(O)CCCN(Cc2ccc(F)c(F)c2)C1=O (stereo not given)	1	
COc1ccc(C(=O)CCC(=O)N2CCC(CCC(=O)NC3CC3)CC2)cc1	0.972	
COc1ccc(CC(=O)NCC2CCCN(C(=O)c3occc3C)C2)cc1 (stereo not given)		0.955
OC[C@@H]1CCCN1c1ccc(-c2nc(-c3ccccc3F)no2)cn1	0.68	
CCN(Cc1ccccc1)C(=O)c1coc(COc2ccccc2)n1		0.072
Cc1ccc(CN(C)C(=O)CC2(c3cccc(C(F)(F)F)c3)CC(=O)N(C3CC3)C2=O)cc1 (stereo not given)		0.006
O=C(CCCCc1ccccc1)Nc1ccc(N2CCC(NCCCc3cccnc3)CC2)cc1		0.824
C=CCS(=O)(=O)N1CCCC1C(=O)Nc1ccccc1-c1ccc(OC)cc1 (stereo not given)		0.783
CCN(C)CC1(O)CCCN(Cc2cccc(OC)c2)C1=O (stereo not given)	0.807	
CC(C)N1CCN(C(=O)c2coc(COc3ccccc3)n2)CC1		0.981
O=C(NC1CC1)C1CCN(C2CCN(C3C4CC5CC(C4)CC3C5)CC2)CC1 (stereo not given)	0.641	
COc1ccc(CC(=O)NCC2CCCN(CCCn3cccn3)C2)cc1 (stereo not given)	0.966	
O=C1N(CC2CCC2)CCCC1(O)CN1CCC(O)CC1 (stereo not given)	0.905	
Cc1ccccc1N1CCN(C(=O)CCC2(Cc3ccc(-c4ccccc4)cc3)CCC(=O)N2)CC1 (stereo not given)		0.003
COc1cc(CC2(CCC(=O)NC(C)c3cccs3)CCC(=O)N2)ccc1F (stereo not given)		0.739
Cc1ccc(-c2ccnc(-n3ncc(C(=O)N4CCN(Cc5ccccc5)CC4)c3C3CC3)n2)o1		1.02
CCCc1cc(CN(C)C(=O)c2cc(NC(=O)c3ccccc3)cc3ncn(C4CCCC4)c23)n[nH]1		0.846
CC(=O)c1cccc(OCc2cc(C(=O)N(C)Cc3ccno3)n[nH]2)c1	0.91	
COCCCn1c(CN2CCc3c([nH]c4ccccc34)C2C(C)C)cnc1S(C)(=O)=O (stereo not given)	0.932	

Molecules listed so far with sulfur (three):
Compound	bacterial growth OD600 (polymyxin B 1 µg/mL)	bacterial growth OD600 (polymyxin B 0.75 µg/mL)
C=CCS(=O)(=O)N1CCCC1C(=O)Nc1ccccc1-c1ccc(OC)cc1 (stereo not given)		0.783
COc1cc(CC2(CCC(=O)NC(C)c3cccs3)CCC(=O)N2)ccc1F (stereo not given)		0.739
COCCCn1c(CN2CCc3c([nH]c4ccccc34)C2C(C)C)cnc1S(C)(=O)=O (stereo not given)	0.932	
